{
  "source": "patent US20050042244A1",
  "about": "“Method of controlling acarian and device for use in the same” (KURARAY CO LTD, priority 2002, published 2005)",
  "test_system": "human",
  "assay": "Odor and effect on human of sampled gas containing farnesylacetone",
  "conditions": "gas containing 0.001 μg/L farnesylacetone",
  "data": [
    {"smiles": "CC(=O)CC/C=C(\\C)CC/C=C(\\C)CCC=C(C)C", "note": "[farnesylacetone]", "values": [
      {"measurement": "odor of gas for human", "value": "almost no smell for human"},
      {"measurement": "odor of gas for human", "setting": "listed as Farnesylacetone", "value": "scarcely had an odor detected by human"}
    ]}
  ]
}
